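Human melanoma cell lines in 1,536-well plates were treated with a pair of drugs for 72 h, then fixed, stained and imaged. Values are the share of nuclei positive for cleaved PARP as a percentage of the same share in the DMSO control: 100 is the control level, higher means more apoptosis. Concentrations were fixed for each drug; these are the higher of two levels. No replicate spread is given; individual values may be noisy. Basal and induced levels differ widely between cell lines.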
This is part of the screen, not chosen by result.
An entry leaves out what has no value listed here.

All values are for the listed drug together with PF-04217903 (5 µM): OCCn1cc(-c2cnc3nnn(Cc4ccc5ncccc5c4)c3n2)cn1

For O=C(/C=C/c1cccnc1)NCCCCC1CCN(C(=O)c2ccccc2)CC1 at 0.05 µM the values were A2058: 66.3; RVH-421: 573; LB2518-MEL: 349; C32: 37.4; COLO 792: 720.
For OCc1c[nH]c2ccccc12 at 4 µM the values were A2058: 68.9; RVH-421: 36.9; LB2518-MEL: 61.0; C32: 80.6; COLO 792: 62.0.
For CCc1ccc(CCOc2ccc(CC3SC(=O)NC3=O)cc2)nc1 (configuration not stated) at 10 µM the values were A2058: 140; RVH-421: 96.6; LB2518-MEL: 60.9; C32: 86.8; COLO 792: 71.6.
For O=C(Nc1ccccc1)c1cc([N+](=O)[O-])ccc1Cl at 10 µM the values were A2058: 97.6; RVH-421: 86.4; LB2518-MEL: 148; C32: 109; COLO 792: 65.4.
For COC(=O)c1sccc1S(=O)(=O)Nc1ccc(Nc2ccccc2)cc1OC at 5 µM the values were A2058: 153; RVH-421: 70.4; LB2518-MEL: 62.3; C32: 100; COLO 792: 145.
For O=S(=O)(c1ccccc1)N(CC(F)(F)F)c1ccc(C(O)(C(F)(F)F)C(F)(F)F)cc1 at 7 µM the values were A2058: 102; RVH-421: 256; LB2518-MEL: 45.9; C32: 86.0; COLO 792: 75.1.
For Cc1nc(Nc2ncc(C(=O)Nc3c(C)cccc3Cl)s2)cc(N2CCN(CCO)CC2)n1 at 0.02 µM the values were A2058: 191; RVH-421: 143; LB2518-MEL: 25.4; C32: 499; COLO 792: 141.
For COc1cc(N2CCC(N3CCN(C)CC3)CC2)ccc1Nc1ncc(Cl)c(Nc2ccccc2S(=O)(=O)C(C)C)n1 at 0.4 µM the values were A2058: 274; RVH-421: 47.5; LB2518-MEL: 289; C32: 114; COLO 792: 119.
For NC1(c2ccc(-c3nc4ccn5c(=O)[nH]nc5c4cc3-c3ccccc3)cc2)CCC1 at 2 µM the values were A2058: 58.7; RVH-421: 37.9; LB2518-MEL: 391; C32: 180; COLO 792: 169.
For C[C@]1(O)C[C@@H](c2nc(-c3ccc4ccc(-c5ccccc5)nc4c3)c3c(N)nccn32)C1 at 2 µM the values were A2058: 71.3; RVH-421: 118; LB2518-MEL: 49.8; C32: 153; COLO 792: 133.
For CC(C)C[C@H](NC(=O)[C@H](Cc1ccccc1)NC(=O)c1cnccn1)B(O)O at 0.005 µM the values were A2058: 4500; RVH-421: 1250; LB2518-MEL: 4940; C32: 2910; COLO 792: 610.
For Cn1cnc2c(F)c(Nc3ccc(Br)cc3Cl)c(C(=O)NOCCO)cc21 at 0.075 µM the values were A2058: 156; RVH-421: 98.5; C32: 234; COLO 792: 65.3.
For O=C(O)C(=O)Nc1sc2c(c1C(=O)O)CCNC2 at 8.33 µM the values were A2058: 117; RVH-421: 119; LB2518-MEL: 53.2; C32: 99.1; COLO 792: 77.1.
For N#CC[C@H](C1CCCC1)n1cc(-c2ncnc3[nH]ccc23)cn1 at 5 µM the values were A2058: 134; RVH-421: 94.9; C32: 80.3; COLO 792: 228.
For O=C(Oc1ccc([N+](=O)[O-])cc1)N1CCC(C(O)(c2ccc3c(c2)OCO3)c2ccc3c(c2)OCO3)CC1 at 5 µM the values were A2058: 123; RVH-421: 89.9; LB2518-MEL: 49.7; C32: 86.1; COLO 792: 15.3.
For C[As](C)SC[C@H](NC(=O)CC[C@H](N)C(=O)O)C(=O)NCC(=O)O at 2 µM the values were A2058: 137; RVH-421: 74.6; LB2518-MEL: 102; C32: 90.7; COLO 792: 113.
For C[C@]12O[C@H](C[C@]1(O)CO)n1c3ccccc3c3c4c(c5c6ccccc6n2c5c31)CNC4=O at 0.02 µM the values were A2058: 163; RVH-421: 56.9; C32: 82.3; COLO 792: 123.
For CC(=O)O[C@@]12CO[C@@H]1C[C@H](O)[C@@]1(C)C(=O)[C@H](O)C3=C(C)[C@@H](OC(=O)[C@H](O)[C@@H](NC(=O)OC(C)(C)C)c4ccccc4)C[C@@](O)([C@@H](OC(=O)c4ccccc4)[C@H]21)C3(C)C at 0.0005 µM the values were A2058: 3750; RVH-421: 245; LB2518-MEL: 221; C32: 269; COLO 792: 499.
For O=C1NC(=O)/C(=C/c2ccc(-c3ccc(F)cc3O)o2)S1 at 5 µM the values were A2058: 88.6; RVH-421: 33.0; LB2518-MEL: 142; C32: 86.8; COLO 792: 55.4.
For C[C@]1(c2nc3c(C(N)=O)cccc3[nH]2)CCCN1 at 7 µM the values were A2058: 72.6; RVH-421: 160; LB2518-MEL: 111; C32: 110; COLO 792: 61.6.
For Cc1cc(SCc2sc(-c3ccc(C(F)(F)F)c(F)c3)nc2C)ccc1OCC(=O)O at 10 µM the values were A2058: 178; RVH-421: 38.6; LB2518-MEL: 61.9; C32: 73.9; COLO 792: 106.
For CN(NC(=O)CC(=O)NN(C)C(=S)c1ccccc1)C(=S)c1ccccc1 at 0.03 µM the values were A2058: 1710; RVH-421: 138; LB2518-MEL: 699; C32: 5760; COLO 792: 1300.
For N.N.[Cl][Pt][Cl] at 8 µM the values were A2058: 123; RVH-421: 42.6; LB2518-MEL: 54.3; C32: 84.8; COLO 792: 87.1.
For C#Cc1cccc(Nc2ncnc3cc(OCCOC)c(OCCOC)cc23)c1 at 4 µM the values were A2058: 361; RVH-421: 161; C32: 82.5; COLO 792: 300.
For Cc1cn(-c2cc(NC(=O)c3ccc(C)c(Nc4nccc(-c5cccnc5)n4)c3)cc(C(F)(F)F)c2)cn1 at 1 µM the values were A2058: 195; RVH-421: 145; LB2518-MEL: 109; C32: 63.8; COLO 792: 134.
For CO[C@H]1C[C@@H]2CC[C@@H](C)[C@@](O)(O2)C(=O)C(=O)N2CCCC[C@H]2C(=O)O[C@H]([C@H](C)C[C@@H]2CC[C@@H](OCCO)[C@H](OC)C2)CC(=O)[C@H](C)/C=C(\C)[C@@H](O)[C@@H](OC)C(=O)[C@H](C)C[C@H](C)/C=C/C=C/C=C/1C at 0.1 µM the values were A2058: 112; RVH-421: 217; C32: 97.8; COLO 792: 71.4.
For CN(c1ncccc1CNc1nc(Nc2ccc3c(c2)CC(=O)N3)ncc1C(F)(F)F)S(C)(=O)=O at 0.4 µM the values were A2058: 158; RVH-421: 215; LB2518-MEL: 115; C32: 170; COLO 792: 171.
For NC(=O)Nc1cc(-c2cccc(F)c2)sc1C(=O)N[C@H]1CCCNC1 at 0.1 µM the values were A2058: 114; RVH-421: 182; LB2518-MEL: 357; C32: 296; COLO 792: 225.
For O=C(O)c1ccc2c(c1)nc(Nc1cccc(Cl)c1)c1ccncc12 at 2 µM the values were A2058: 125; RVH-421: 102; LB2518-MEL: 65.3; C32: 120; COLO 792: 198.
For COCC[n+]1c2c(n(Cc3cnccn3)c1C)C(=O)c1ccccc1C2=O at 0.002 µM the values were A2058: 588; RVH-421: 552; LB2518-MEL: 173; C32: 102; COLO 792: 180.
For CS(=O)(=O)c1ccc(C(=O)Nc2ccc(Cl)c(-c3ccccn3)c2)c(Cl)c1 at 5 µM the values were A2058: 122; RVH-421: 137; LB2518-MEL: 44.7; C32: 73.7; COLO 792: 74.9.
For Nc1ncn([C@H]2C[C@H](O)[C@@H](CO)O2)c(=O)n1 at 0.5 µM the values were A2058: 188; RVH-421: 119; LB2518-MEL: 128; C32: 132; COLO 792: 48.2.
For Cn1cc(C2=C(c3cn(C4CCN(Cc5ccccn5)CC4)c4ccccc34)C(=O)NC2=O)c2ccccc21 at 4 µM the values were A2058: 126; RVH-421: 281; LB2518-MEL: 127; C32: 179; COLO 792: 127.
For Cn1c(=O)n(-c2ccc(C(C)(C)C#N)cc2)c2c3cc(-c4cnc5ccccc5c4)ccc3ncc21 at 0.02 µM the values were A2058: 105; RVH-421: 59.0; LB2518-MEL: 176; C32: 199; COLO 792: 171.
For C/C(O)=C(\C#N)C(=O)Nc1cc(Br)ccc1Br at 10 µM the values were A2058: 110; RVH-421: 44.7; LB2518-MEL: 81.1; C32: 76.0; COLO 792: 57.3.

4 of the entries, repeated:

- O=C1NC(=O)/C(=C/c2ccc(-c3ccc(F)cc3O)o2)S1 at 5 µM | A2058: 88.6; RVH-421: 33.0; LB2518-MEL: 142; C32: 86.8; COLO 792: 55.4
- O=C(Nc1ccccc1)c1cc([N+](=O)[O-])ccc1Cl at 10 µM | A2058: 97.6; RVH-421: 86.4; LB2518-MEL: 148; C32: 109; COLO 792: 65.4
- COCC[n+]1c2c(n(Cc3cnccn3)c1C)C(=O)c1ccccc1C2=O at 0.002 µM | A2058: 588; RVH-421: 552; LB2518-MEL: 173; C32: 102; COLO 792: 180
- C[C@]1(c2nc3c(C(N)=O)cccc3[nH]2)CCCN1 at 7 µM | A2058: 72.6; RVH-421: 160; LB2518-MEL: 111; C32: 110; COLO 792: 61.6

Source: doi:10.1371/journal.pone.0140310, primary screening data, rounded.